Experimental data: PMC6531819
Construct, isoform or probe ends are uncertain for at least one entry. For some assays here: No signal at the amounts used counts as a negative. For some assays here: Protein sequences can lack the tags named with them.

What was measured:
[1] = target: T1, GST-IbABF4 (Ipomoea batatas (cv. Xushu 18)) (UniProt A0A4Y5QRS9); assay: EMSA; conditions: 5 and 10 ug protein, shift increases with protein, self-competition by unlabeled probe abolishes binding; 200 mM HEPES (pH not stated), 5 mM DTT, 1 mM EDTA, 50 mM KCl, 20 pmol poly dI-dC, 30 uL, room temperature 30 min; 8% native PAGE; recombinant protein; residues 1-423
T1 sequence (looked up): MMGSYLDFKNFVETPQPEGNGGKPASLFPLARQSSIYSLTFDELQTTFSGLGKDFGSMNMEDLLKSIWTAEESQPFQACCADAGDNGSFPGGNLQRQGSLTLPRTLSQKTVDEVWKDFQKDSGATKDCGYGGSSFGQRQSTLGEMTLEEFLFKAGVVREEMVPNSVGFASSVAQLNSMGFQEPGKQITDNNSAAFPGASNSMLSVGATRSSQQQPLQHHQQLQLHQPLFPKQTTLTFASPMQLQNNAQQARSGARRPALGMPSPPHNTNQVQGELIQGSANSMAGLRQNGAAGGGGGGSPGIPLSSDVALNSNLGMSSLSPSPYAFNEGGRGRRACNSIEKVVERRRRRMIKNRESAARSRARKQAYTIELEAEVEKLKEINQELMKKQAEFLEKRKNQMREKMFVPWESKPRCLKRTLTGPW

[2] = tested on: GST; assay: EMSA; conditions: 200 mM HEPES (pH not stated), 5 mM DTT, 1 mM EDTA, 50 mM KCl, 20 pmol poly dI-dC, 30 uL, room temperature 30 min; 8% native PAGE; recombinant protein; protein details: GST

“GGACAGCTGGCGGGACACGTGGCGGGACACGTGGCG (double strand) [ABRE probe (ABRE repeat motif)]”: binds [1]; no binding [2].
